Data as given in PubChem BioAssay AID504793 (Drosophila RNAi Screening Center, 2011)
In all, the deposit lists about 23,000 reagents; below is an unselected part of those that have a named target and a result. Of all reagents, 62 (0.27%) are marked active. 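Calls come from follow-up tests whose scores are not deposited, so confirmed genes may have low counts here; counts are not normalised per plate.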 The raw values are shown without normalisation. A number with no mark means an inactive call. Reagents against one gene are numbered here. Names joined by + are all predicted targets of the reagent.

- Screen: 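Genes required for cells to halt at G2/M after double-strand DNA breaks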 (primary screen)
- System: Drosophila S2R+ cells
- Reagents: long dsRNA against Drosophila genes, about 0.25 µg dsRNA per well
- Timing: 4 days of dsRNA, then 4 hours of drug before read-out
- Conditions: doxorubicin 0.5 µM for 4 hours to cause double-strand breaks, in cells also given a low, harmless dose of dsRNA against nbs to sensitise the assay
- Measured: 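Per-well count of mitotic cells stained for phospho-histone H3 after doxorubicin exposure, used as mitotic index; counts are raw and not normalised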
- Reading the numbers: mitotic cells: higher = more cells in mitosis, weaker G2 arrest
- Hit rule: 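a call needs confirmation in secondary tests, with other dsRNAs and a check of mitotic timing without damage, not just a high primary count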
- Meaning of the calls: active = confirmed in follow-up tests; inactive = not confirmed

Knock-down of neo (neyo) #1 gave: mitotic cells, replicate 1 = 5. Against neo (neyo) #2 the deposit lists mitotic cells, replicate 1 = 7. CG15642 #1 gave mitotic cells, replicate 1 = 7. CG15642 #2 showed mitotic cells, replicate 1 = 6. With knock-down of RhoGAP1A (Rho GTPase activating protein at 1A) #1, the screen gave mitotic cells, replicate 1 = 5. For RhoGAP1A (Rho GTPase activating protein at 1A) #2 the deposit lists mitotic cells, replicate 1 = 10.

Silencing of boss (bride of sevenless) #1 came out at: mitotic cells, replicate 1 = 4. Against boss (bride of sevenless) #2, the entry reads mitotic cells, replicate 1 = 6. For Cpr92A (Cuticular protein 92A) #1, the entry reads mitotic cells, replicate 1 = 8. After knock-down of Cpr92A (Cuticular protein 92A) #2 the results were mitotic cells, replicate 1 = 5. Silencing of Klp31E (Kinesin-like protein at 31E) came out at: mitotic cells, replicate 1 = 7. GstE3 (Glutathione S transferase E3) gave mitotic cells, replicate 1 = 5.

After knock-down of CG32687 #1 the results were mitotic cells, replicate 1 = 17. CG32687 #2 scored mitotic cells, replicate 1 = 9. Knock-down of CG14401 #1 resulted in: mitotic cells, replicate 1 = 5. With knock-down of CG14401 #2, the screen gave mitotic cells, replicate 1 = 5. For CG14401 #3, the values are mitotic cells, replicate 1 = 10.

Entries above whose gene name begins with B or b:
boss (bride of sevenless) #1 → mitotic cells, replicate 1 = 4
boss (bride of sevenless) #2 → mitotic cells, replicate 1 = 6

Continued:
After knock-down of Urod (Uroporphyrinogen decarboxylase) #1 the results were mitotic cells, replicate 1 = 6. Depletion of Urod (Uroporphyrinogen decarboxylase) #2 gave: mitotic cells, replicate 1 = 6. Silencing of Jon99Fii + Jon99Cii + Jon99Ciii + 1 more resulted in: mitotic cells, replicate 1 = 13. After knock-down of Hira, the record shows mitotic cells, replicate 1 = 18. Trc8 (TRC8 ring finger protein) #1 gave mitotic cells, replicate 1 = 6. Silencing of Trc8 (TRC8 ring finger protein) #2 gave: mitotic cells, replicate 1 = 9.

With knock-down of CG31999 #1, the record shows mitotic cells, replicate 1 = 12. For CG31999 #2, the values are mitotic cells, replicate 1 = 17. firl (firelighter) showed mitotic cells, replicate 1 = 4. Gr64d + Gr64e gave mitotic cells, replicate 1 = 10. Silencing of kappaTry gave: mitotic cells, replicate 1 = 9. With knock-down of CG10226, the screen gave mitotic cells, replicate 1 = 11.

After knock-down of CG14823 the results were mitotic cells, replicate 1 = 8. Against thr (three rows) the deposit lists mitotic cells, replicate 1 = 9. After knock-down of chn (charlatan) #1 the results were mitotic cells, replicate 1 = 6. For chn (charlatan) #2 the deposit lists mitotic cells, replicate 1 = 3. Silencing of nrv3 (nervana 3) gave: mitotic cells, replicate 1 = 3.
